Reference: PubChem BioAssay AID1259305 (Sanger Institute, 2017)
Purpose: 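Kinase genes whose silencing acts in synergy with trametinib, BYL719 or cetuximab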 (follow-up of hits). Cells: human DIFI colorectal cancer cells. Knock-down reagent: single siRNA against human genes. Challenge: BYL719 1 µM, cetuximab 5 µg/ml or trametinib 10 nM, or DMSO vehicle, added one day after transfection; exposure time not given. Measured: 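Survival relative to a non-targeting siRNA control pool averaged across replicates, with synergy scores per drug weighing the combination against siRNA only and drug only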. Reading the numbers: synergy score with BYL719 and synergy score with Cetuximab and synergy score with Trametinib: higher = stronger combined killing than expected. Rule for the call: 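Synergy score over 0.10 with any single drug gives a synergistic, that is synthetic lethal, call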.
Here is one part, drawn at random, of 160 reagents tested. 96 of all reagents (60%) count as active. 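Each call covers one siRNA sequence in one cell line only; gene-level confirmation needs agreement across siRNAs and lines.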 The numbers tell different reagents against one gene apart. Not all columns of the deposit are shown. Not given: the amount of reagent, the time to read-out.

Knock-down of MAPK4 #1 gave: synergy score with BYL719 = 0.0211; synergy score with Cetuximab 0.0394; synergy score with Trametinib -0.0394; inactive.
After knock-down of MAPK4 #2, the record shows synergy score with BYL719 = 0.0559; synergy score with Cetuximab 0.0287; synergy score with Trametinib 0.0918; inactive.
Against MAPK4 #3, the entry reads synergy score with BYL719 = -0.00201; synergy score with Cetuximab 0.0844; synergy score with Trametinib 0.0751; inactive.
Against MAPK4 #4, the values are synergy score with BYL719 = 0.077; synergy score with Cetuximab 0.0162; synergy score with Trametinib 0.0607; inactive.
Silencing of AK2 #1 gave: synergy score with BYL719 = -0.0135; synergy score with Cetuximab 0.205; synergy score with Trametinib 0.126; active.
Depletion of AK2 #2 gave: synergy score with BYL719 = -0.0152; synergy score with Cetuximab 0.234; synergy score with Trametinib 0.191; active.
With knock-down of AK2 #3, the record shows synergy score with BYL719 = -0.248; synergy score with Cetuximab -0.0088; synergy score with Trametinib -0.0441; inactive.
AK2 #4 showed synergy score with BYL719 = -0.0623; synergy score with Cetuximab 0.246; synergy score with Trametinib 0.329; active.
For ACVR1 #1, the values are synergy score with BYL719 = -0.248; synergy score with Cetuximab 0.0562; synergy score with Trametinib -0.153; inactive.
Against ACVR1 #2, the entry reads synergy score with BYL719 = -0.00118; synergy score with Cetuximab 0.096; synergy score with Trametinib 0.0198; inactive.
With knock-down of ACVR1 #3 the results were synergy score with BYL719 = -0.205; synergy score with Cetuximab 0.109; synergy score with Trametinib -0.109; active.
Against ACVR1 #4, the values are synergy score with BYL719 = -0.0575; synergy score with Cetuximab 0.215; synergy score with Trametinib 0.232; active.

Targets listed so far whose target name begins with M or m (4):
MAPK4 #1 | synergy score with BYL719: 0.0211; synergy score with Cetuximab: 0.0394; synergy score with Trametinib: -0.0394; outcome: inactive
MAPK4 #2 | synergy score with BYL719: 0.0559; synergy score with Cetuximab: 0.0287; synergy score with Trametinib: 0.0918; outcome: inactive
MAPK4 #3 | synergy score with BYL719: -0.00201; synergy score with Cetuximab: 0.0844; synergy score with Trametinib: 0.0751; outcome: inactive
MAPK4 #4 | synergy score with BYL719: 0.077; synergy score with Cetuximab: 0.0162; synergy score with Trametinib: 0.0607; outcome: inactive
